# Measured values taken from the supplement of paper PMC8728848.
# Some of the results follow.
# B1: CLEC9a (Mus musculus), Q8BRU4 (protein)
# chain: MHAEEIYTSLQWDIPTSEASQKCQSPSKCSGAWCVVTMISCVVCMGLLATSIFLGIKFFQVSSLVLEQQERLIQQDTALVNLTQWQRKYTLEYCQALLQRSLHSGSDCSPCPHNWIQNGKSCYYVFERWEMWNISKKSCLKEGASLFQIDSKEEMEFISSIGKLKGGNKYWVGVFQDGISGSWFWEDGSSPLSDLLPAERQRSAGQICGYLKDSTLISDKCDSWKYFICEKKAFGSCI
# Legend:
# Experiment in all cases: glycan array binding signal (z-score within array); higher = stronger binding
# Conditions in all cases: glycan notation: IUPAC condensed, linker removed
# [1] = target: Neu5Ac(a2-3)Gal(b1-4)GlcNAc(b1-3)Gal(b1-4)GlcNAc(b1-3)Gal(b1-4)GlcNAc
# Summary of the method: (§1)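 The binding signal is a Z-score computed within each array and averaged over linkers. Arrays of the same protein sequence at different concentrations or buffers were also averaged together. Data originate from 3228 arrays in the Consortium for Functional Glycomics database, kept only where the protein sequence was available.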
# [2] = target: Neu5Ac(a2-3)Gal(b1-4)GlcNAc(b1-3)Gal(b1-4)[Fuc(a1-3)]GlcNAc
# Summary of the method: as §1
# [3] = target: Neu5Ac(a2-3)Gal(b1-4)GlcNAc(b1-3)GalNAc
# Summary of the method: as §1
# [4] = target: Neu5Ac(a2-3)Gal(b1-4)GlcNAc(b1-6)[Gal(b1-3)]GalNAc
# Summary of the method: as §1
# [5] = target: Neu5Ac(a2-3)Gal(b1-4)GlcNAc(b1-6)[Neu5Ac(a2-3)Gal(b1-3)]GalNAc
# Summary of the method: as §1
# [6] = target: Neu5Ac(a2-3)Gal(b1-4)GlcNAc6S
# Summary of the method: as §1
# [7] = target: Neu5Ac(a2-3)Gal(b1-4)[Fuc(a1-3)]GlcNAc
# Summary of the method: as §1
# [8] = target: Neu5Ac(a2-3)Gal(b1-4)[Fuc(a1-3)]GlcNAc(b1-3)Gal
# Summary of the method: as §1
# [9] = target: Neu5Ac(a2-3)Gal(b1-4)[Fuc(a1-3)]GlcNAc(b1-3)Gal(b1-4)GlcNAc
# Summary of the method: as §1
# [10] = target: Neu5Ac(a2-3)Gal(b1-4)[Fuc(a1-3)]GlcNAc(b1-3)Gal(b1-4)[Fuc(a1-3)]GlcNAc(b1-3)Gal(b1-4)[Fuc(a1-3)]GlcNAc
# Summary of the method: as §1
# [11] = target: Neu5Ac(a2-3)Gal(b1-4)[Fuc(a1-3)]GlcNAc(b1-3)GalNAc
# Summary of the method: as §1
# [12] = target: Neu5Ac(a2-3)Gal(b1-4)[Fuc(a1-3)]GlcNAc(b1-6)[Gal(b1-3)]GalNAc
# Summary of the method: as §1
# [13] = target: Neu5Ac(a2-3)Gal(b1-4)[Fuc(a1-3)]GlcNAc(b1-6)[Neu5Ac(a2-3)Gal(b1-3)]GalNAc
# Summary of the method: as §1
# [14] = target: Neu5Ac(a2-3)Gal(b1-4)[Fuc(a1-3)]GlcNAc6S
# Summary of the method: as §1
# [15] = target: Neu5Ac(a2-3)Gal6S(b1-4)GlcNAc
# Summary of the method: as §1
# [16] = target: Neu5Ac(a2-3)Gal6S(b1-4)[Fuc(a1-3)]GlcNAc
# Summary of the method: as §1
# [17] = target: Neu5Ac(a2-3)GalNAc
# Summary of the method: as §1
# [18] = target: Neu5Ac(a2-3)GalNAc(b1-4)GlcNAc
# Summary of the method: as §1
# [19] = target: Neu5Ac(a2-3)[GalNAc(b1-4)]Gal(b1-4)Glc
# Summary of the method: as §1
# [20] = target: Neu5Ac(a2-3)[GalNAc(b1-4)]Gal(b1-4)GlcNAc
# Summary of the method: as §1
# [21] = target: Neu5Ac(a2-3)[GalNAc(b1-4)]Gal(b1-4)GlcNAc(b1-3)GalNAc
# Summary of the method: as §1
# [22] = target: Neu5Ac(a2-3)[Neu5Ac(a2-6)]GalNAc
# Summary of the method: as §1
# [23] = target: Neu5Ac(a2-6)Gal
# Summary of the method: as §1
# [24] = target: Neu5Ac(a2-6)Gal(b1-4)Glc
# Summary of the method: as §1
# [25] = target: Neu5Ac(a2-6)Gal(b1-4)GlcNAc
# Summary of the method: as §1
# [26] = target: Neu5Ac(a2-6)Gal(b1-4)GlcNAc(b1-2)Man(a1-3)Man(b1-4)GlcNAc(b1-4)GlcNAc
# Summary of the method: as §1
# [27] = target: Neu5Ac(a2-6)Gal(b1-4)GlcNAc(b1-2)Man(a1-3)[Gal(b1-4)GlcNAc(b1-2)Man(a1-6)]Man(b1-4)GlcNAc(b1-4)GlcNAc
# Summary of the method: as §1
# [28] = target: Neu5Ac(a2-6)Gal(b1-4)GlcNAc(b1-2)Man(a1-3)[GlcNAc(b1-2)Man(a1-6)]Man(b1-4)GlcNAc(b1-4)GlcNAc
# Summary of the method: as §1
# [29] = target: Neu5Ac(a2-6)Gal(b1-4)GlcNAc(b1-2)Man(a1-3)[GlcNAc(b1-2)Man(b1-4)GlcNAc(b1-2)Man(a1-6)]Man(b1-4)GlcNAc(b1-4)GlcNAc
# Summary of the method: as §1
# [30] = target: Neu5Ac(a2-6)Gal(b1-4)GlcNAc(b1-2)Man(a1-3)[Man(a1-6)]Man(b1-4)GlcNAc(b1-4)GlcNAc
# Summary of the method: as §1
# [31] = target: Neu5Ac(a2-6)Gal(b1-4)GlcNAc(b1-2)Man(a1-3)[Neu5Ac(a2-6)Gal(b1-4)GlcNAc(b1-2)Man(a1-6)]Man(b1-4)GlcNAc(b1-4)GlcNAc
# Summary of the method: as §1
# [32] = target: Neu5Ac(a2-6)Gal(b1-4)GlcNAc(b1-2)Man(a1-6)Man(b1-4)GlcNAc(b1-4)GlcNAc
# Summary of the method: as §1
# [33] = target: Neu5Ac(a2-6)Gal(b1-4)GlcNAc(b1-2)Man(a1-6)[Gal(b1-4)GlcNAc(b1-2)Man(a1-3)]Man(b1-4)GlcNAc(b1-4)GlcNAc
# Summary of the method: as §1
# [34] = target: Neu5Ac(a2-6)Gal(b1-4)GlcNAc(b1-2)Man(a1-6)[GlcNAc(b1-2)Man(a1-3)]Man(b1-4)GlcNAc(b1-4)GlcNAc
# Summary of the method: as §1
# [35] = target: Neu5Ac(a2-6)Gal(b1-4)GlcNAc(b1-2)Man(a1-6)[Man(a1-3)]Man(b1-4)GlcNAc(b1-4)GlcNAc
# Summary of the method: as §1
# [36] = target: Neu5Ac(a2-6)Gal(b1-4)GlcNAc(b1-3)Gal(b1-3)GlcNAc
# Summary of the method: as §1
# [37] = target: Neu5Ac(a2-6)Gal(b1-4)GlcNAc(b1-3)Gal(b1-4)GlcNAc
# Summary of the method: as §1
# [38] = target: Neu5Ac(a2-6)Gal(b1-4)GlcNAc(b1-3)Gal(b1-4)GlcNAc(b1-3)Gal(b1-4)GlcNAc
# Summary of the method: as §1
# [39] = target: Neu5Ac(a2-6)Gal(b1-4)GlcNAc(b1-3)Gal(b1-4)[Fuc(a1-3)]GlcNAc(b1-3)Gal(b1-4)[Fuc(a1-3)]GlcNAc
# Summary of the method: as §1
# [40] = target: Neu5Ac(a2-6)Gal(b1-4)GlcNAc(b1-3)GalNAc
# Summary of the method: as §1
# [41] = target: Neu5Ac(a2-6)Gal(b1-4)GlcNAc6S
# Summary of the method: as §1
# [42] = target: Neu5Ac(a2-6)GalNAc
# Summary of the method: as §1
# [43] = target: Neu5Ac(a2-6)GalNAc(b1-4)GlcNAc
# Summary of the method: as §1
# [44] = target: Neu5Ac(a2-6)GlcNAc(b1-4)GlcNAc
# Summary of the method: as §1
# [45] = target: Neu5Ac(a2-6)GlcNAc(b1-4)GlcNAc(b1-4)GlcNAc
# Summary of the method: as §1
binder,measurement,setting,value
B1,glycan array binding signal (z-score),[1],-1.1
same,glycan array binding signal (z-score),[2],-2.04
same,glycan array binding signal (z-score),[3],-0.825
same,glycan array binding signal (z-score),[4],-0.727
same,glycan array binding signal (z-score),[5],-0.1
same,glycan array binding signal (z-score),[6],1.55
same,glycan array binding signal (z-score),[7],-0.264
same,glycan array binding signal (z-score),[8],-1.7
same,glycan array binding signal (z-score),[9],1.4
same,glycan array binding signal (z-score),[10],0.387
same,glycan array binding signal (z-score),[11],1.77
same,glycan array binding signal (z-score),[12],0.701
same,glycan array binding signal (z-score),[13],1.35
same,glycan array binding signal (z-score),[14],-0.627
same,glycan array binding signal (z-score),[15],-0.067
same,glycan array binding signal (z-score),[16],0.049
same,glycan array binding signal (z-score),[17],-1.07
same,glycan array binding signal (z-score),[18],0.071
same,glycan array binding signal (z-score),[19],0.981
same,glycan array binding signal (z-score),[20],-0.497
same,glycan array binding signal (z-score),[21],0.172
same,glycan array binding signal (z-score),[22],-0.586
same,glycan array binding signal (z-score),[23],0.412
same,glycan array binding signal (z-score),[24],0.132
same,glycan array binding signal (z-score),[25],1.5
same,glycan array binding signal (z-score),[26],0.067
same,glycan array binding signal (z-score),[27],0.99
same,glycan array binding signal (z-score),[28],-0.365
same,glycan array binding signal (z-score),[29],0.411
same,glycan array binding signal (z-score),[30],0.699
same,glycan array binding signal (z-score),[31],0.305
same,glycan array binding signal (z-score),[32],-0.196
same,glycan array binding signal (z-score),[33],0.443
same,glycan array binding signal (z-score),[34],-0.792
same,glycan array binding signal (z-score),[35],-0.14
same,glycan array binding signal (z-score),[36],1.28
same,glycan array binding signal (z-score),[37],-0.494
same,glycan array binding signal (z-score),[38],0.032
same,glycan array binding signal (z-score),[39],-0.661
same,glycan array binding signal (z-score),[40],-1.24
same,glycan array binding signal (z-score),[41],-0.465
same,glycan array binding signal (z-score),[42],-0.367
same,glycan array binding signal (z-score),[43],-1.96
same,glycan array binding signal (z-score),[44],0.953
same,glycan array binding signal (z-score),[45],-0.248

# 3 entries drawn at random from those above, as already listed:
binder,measurement,setting,value
B1,glycan array binding signal (z-score),[20],-0.497
same,glycan array binding signal (z-score),[41],-0.465
same,glycan array binding signal (z-score),[3],-0.825
